# Substitutions are numbered along the chain they refer to. The list shows a part of the results. For part of these data: At the low end of the ranking, values are background and their order means little.
# Assays:
# Conditions in all cases: yeast three-hybrid, YBZ-1, SC-Leu-His + 0.5 mM 3-AT, 4 days
# [1] = molecular target: T1, PUM1 PUF domain R4-RIF N971R + H972I + Q975F (UniProt Q14671)
# T1 sequence: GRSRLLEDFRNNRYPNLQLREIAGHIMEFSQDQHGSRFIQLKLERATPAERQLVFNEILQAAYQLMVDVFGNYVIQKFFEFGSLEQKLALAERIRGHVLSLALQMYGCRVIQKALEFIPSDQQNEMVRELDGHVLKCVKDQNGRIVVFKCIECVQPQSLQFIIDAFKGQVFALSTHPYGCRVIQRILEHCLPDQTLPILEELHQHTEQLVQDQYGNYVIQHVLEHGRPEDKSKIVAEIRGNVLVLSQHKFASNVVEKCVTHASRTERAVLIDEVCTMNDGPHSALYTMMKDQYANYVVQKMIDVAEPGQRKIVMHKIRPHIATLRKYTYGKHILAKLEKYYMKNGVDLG
# [2] = molecular target: T2, PUM1 PUF domain R4-RLF N971R + H972L + Q975F (UniProt Q14671)
# T2 sequence: T1 sequence with I145L
# [3] = molecular target: T3, PUM1 PUF domain R4-RMA N971R + H972M + Q975A (UniProt Q14671)
# T3 sequence: T1 sequence with I145M, F148A
# [4] = molecular target: T4, PUM1 PUF domain R4-RMG N971R + H972M + Q975G (Homo sapiens) (UniProt Q14671)
# T4 sequence: T1 sequence with I145M, F148G
# [5] = molecular target: T5, PUM1 PUF domain R4-RMR N971R + H972M + Q975R (UniProt Q14671)
# T5 sequence: T1 sequence with I145M, F148R
# [6] = molecular target: T6, PUM1 PUF domain R4-RMS N971R + H972M + Q975S (UniProt Q14671)
# T6 sequence: T1 sequence with I145M, F148S
# [7] = molecular target: T7, PUM1 PUF domain R4-RRY N971R + H972R + Q975Y (UniProt Q14671)
# T7 sequence: T1 sequence with I145R, F148Y
# [8] = molecular target: T8, PUM1 PUF domain R4-RVY N971R + H972V + Q975Y (UniProt Q14671)
# T8 sequence: T1 sequence with I145V, F148Y
# [9] = molecular target: T9, PUM1 PUF domain R4-RYP N971R + H972Y + Q975P (UniProt Q14671)
# T9 sequence: T1 sequence with I145Y, F148P
# [10] = molecular target: T10, PUM1 PUF domain R4-SCS N971S + H972C + Q975S (UniProt Q14671)
# T10 sequence: T1 sequence with R144S, I145C, F148S
# [11] = molecular target: T11, PUM1 PUF domain R4-SFP N971S + H972F + Q975P (UniProt Q14671)
# T11 sequence: T1 sequence with R144S, I145F, F148P
# [12] = molecular target: T12, PUM1 PUF domain R4-SIG N971S + H972I + Q975G (UniProt Q14671)
# T12 sequence: T1 sequence with R144S, F148G
# [13] = molecular target: T13, PUM1 PUF domain R4-SLS N971S + H972L + Q975S (UniProt Q14671)
# T13 sequence: T1 sequence with R144S, I145L, F148S
# [14] = molecular target: T14, PUM1 PUF domain R4-SLY N971S + H972L + Q975Y (UniProt Q14671)
# T14 sequence: T1 sequence with R144S, I145L, F148Y
# [15] = molecular target: T15, PUM1 PUF domain R4-SMC N971S + H972M + Q975C (UniProt Q14671)
# T15 sequence: T1 sequence with R144S, I145M, F148C
# [16] = molecular target: T16, PUM1 PUF domain R4-SML N971S + H972M + Q975L (Homo sapiens) (UniProt Q14671)
# T16 sequence: T1 sequence with R144S, I145M, F148L
# [17] = molecular target: T17, PUM1 PUF domain R4-SMR N971S + H972M + Q975R (Homo sapiens) (UniProt Q14671)
# T17 sequence: T1 sequence with R144S, I145M, F148R
# [18] = molecular target: T18, PUM1 PUF domain R4-SMS N971S + H972M + Q975S (Homo sapiens) (UniProt Q14671)
# T18 sequence: T1 sequence with R144S, I145M, F148S
# [19] = molecular target: T19, PUM1 PUF domain R4-SMT N971S + H972M + Q975T (UniProt Q14671)
# T19 sequence: T1 sequence with R144S, I145M, F148T
# [20] = molecular target: T20, PUM1 PUF domain R4-SMV N971S + H972M + Q975V (Homo sapiens) (UniProt Q14671)
# T20 sequence: T1 sequence with R144S, I145M, F148V
# [21] = molecular target: T21, PUM1 PUF domain R4-SNA N971S + H972N + Q975A (UniProt Q14671)
# T21 sequence: T1 sequence with R144S, I145N, F148A
# [22] = molecular target: T22, PUM1 PUF domain R4-SNC N971S + H972N + Q975C (UniProt Q14671)
# T22 sequence: T1 sequence with R144S, I145N, F148C
# [23] = molecular target: T23, PUM1 PUF domain R4-SNF N971S + H972N + Q975F (UniProt Q14671)
# T23 sequence: T1 sequence with R144S, I145N
# [24] = molecular target: T24, PUM1 PUF domain R4-SNG N971S + H972N + Q975G (UniProt Q14671)
# T24 sequence: T1 sequence with R144S, I145N, F148G
# [25] = molecular target: T25, PUM1 PUF domain R4-SNL N971S + H972N + Q975L (UniProt Q14671)
# T25 sequence: T1 sequence with R144S, I145N, F148L
# [26] = molecular target: T26, PUM1 PUF domain R4-SNQ N971S + H972N (UniProt Q14671)
# T26 sequence: T1 sequence with R144S, I145N, F148Q
# [27] = molecular target: T27, PUM1 PUF domain R4-SNR N971S + H972N + Q975R (UniProt Q14671)
# T27 sequence: T1 sequence with R144S, I145N, F148R
# [28] = molecular target: T28, PUM1 PUF domain R4-SNS N971S + H972N + Q975S (UniProt Q14671)
# T28 sequence: T1 sequence with R144S, I145N, F148S
# [29] = molecular target: T29, PUM1 PUF domain R4-SNV N971S + H972N + Q975V (UniProt Q14671)
# T29 sequence: T1 sequence with R144S, I145N, F148V
# [30] = molecular target: T30, PUM1 PUF domain R4-SPA N971S + H972P + Q975A (UniProt Q14671)
# T30 sequence: T1 sequence with R144S, I145P, F148A
sequence,measurement,setting,value
GGCUAGAACUAGUGGAUCCCCCGGCGCCCGGCGGCUCGAGCCCGGGUAAGUGUAGAUAGUCUGCAUGCCGCCGGGCGCCAUGCCUGCAGGUCGACUCUAGAAAACAUG,binding signal (log2 enrichment (interaction score)),[1],< -4.83
same,binding signal (log2 enrichment (interaction score)),[2],< -5.56
same,binding signal (log2 enrichment (interaction score)),[3],< -7.3
same,binding signal (log2 enrichment (interaction score)),[4],-4.45
same,binding signal (log2 enrichment (interaction score)),[5],< -7.68
same,binding signal (log2 enrichment (interaction score)),[6],< -5.61
same,binding signal (log2 enrichment (interaction score)),[7],< -5.66
same,binding signal (log2 enrichment (interaction score)),[8],< -6.39
same,binding signal (log2 enrichment (interaction score)),[9],< -6.55
same,binding signal (log2 enrichment (interaction score)),[10],< -7.99
same,binding signal (log2 enrichment (interaction score)),[11],< -6.53
same,binding signal (log2 enrichment (interaction score)),[12],< -8.59
same,binding signal (log2 enrichment (interaction score)),[13],< -8.38
same,binding signal (log2 enrichment (interaction score)),[14],< -8.31
same,binding signal (log2 enrichment (interaction score)),[15],< -6.62
same,binding signal (log2 enrichment (interaction score)),[16],-4.44
same,binding signal (log2 enrichment (interaction score)),[17],-5.06
same,binding signal (log2 enrichment (interaction score)),[18],-2.63
same,binding signal (log2 enrichment (interaction score)),[19],< -7.16
same,binding signal (log2 enrichment (interaction score)),[20],-3.91
same,binding signal (log2 enrichment (interaction score)),[21],< -7.35
same,binding signal (log2 enrichment (interaction score)),[22],< -7.43
same,binding signal (log2 enrichment (interaction score)),[23],< -6.17
same,binding signal (log2 enrichment (interaction score)),[24],< -7.76
same,binding signal (log2 enrichment (interaction score)),[25],< -6.68
same,binding signal (log2 enrichment (interaction score)),[26],< -5.15
same,binding signal (log2 enrichment (interaction score)),[27],< -7.47
same,binding signal (log2 enrichment (interaction score)),[28],< -7.37
same,binding signal (log2 enrichment (interaction score)),[29],< -6.71
same,binding signal (log2 enrichment (interaction score)),[30],< -5.42

# Reprinted from the entries so far (2 entries):
sequence,measurement,setting,value
GGCUAGAACUAGUGGAUCCCCCGGCGCCCGGCGGCUCGAGCCCGGGUAAGUGUAGAUAGUCUGCAUGCCGCCGGGCGCCAUGCCUGCAGGUCGACUCUAGAAAACAUG,binding signal (log2 enrichment (interaction score)),[27],< -7.47
same,binding signal (log2 enrichment (interaction score)),[28],< -7.37
